Changes are numbered by the printed parent chain. These are yes or no findings as the source states them, for the method shown. Some results given as binding are weak or reduced against the parent protein; the word gives no strength.

Amino acid sequences for entries named in this document (tags omitted). A change or cut given only in a name is not applied to a line headed by its entry. Chains listed by the source or under a name are the forms on record and can include a tag or linker. Residues count along the entry.
mTEAD4 (residues 210-427) (Q62296, residues 210-427): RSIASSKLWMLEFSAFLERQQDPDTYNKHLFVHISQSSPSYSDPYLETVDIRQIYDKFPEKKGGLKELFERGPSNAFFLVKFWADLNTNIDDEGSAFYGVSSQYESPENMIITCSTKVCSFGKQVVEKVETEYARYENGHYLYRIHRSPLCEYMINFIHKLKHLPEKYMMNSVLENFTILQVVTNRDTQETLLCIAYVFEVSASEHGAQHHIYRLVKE
mTEAD4 (residues 210-427) Cys360Ser (Q62296, form named): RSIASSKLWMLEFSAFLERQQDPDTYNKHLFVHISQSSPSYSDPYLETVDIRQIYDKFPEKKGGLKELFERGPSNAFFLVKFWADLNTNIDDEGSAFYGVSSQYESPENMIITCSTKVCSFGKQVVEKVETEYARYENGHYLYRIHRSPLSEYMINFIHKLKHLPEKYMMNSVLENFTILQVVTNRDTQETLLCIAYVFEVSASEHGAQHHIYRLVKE

Test [1] deals with mTEAD4 (residues 210-427) (mouse) (UniProt Q62296). Briefly: crystal structure; mTAZ (25-57) with mTEAD4 (210-427), co-expressed and co-purified; hanging drops, 6% PEG 10000, 0.05 M magnesium acetate, 0.1 M tri-sodium citrate pH 5.2, 20 °C; 2.9 Å; 4 TAZ and 4 TEAD in the asymmetric unit, two binding modes (1:1 and 2:2); both purified.
The target of test [2] is T1, mTEAD4 (residues 210-427) Cys360Ser (mouse, UniProt Q62296 210-427, Cys360 replaced with serine).
T1 construct: TEAD4, mouse, residues 210-427, surface-exposed Cys360 replaced with serine; also called TEAD Cys360 to serine; source: E. coli BL21 (DE3), co-expressed with mTAZ (25-57) Asn33Cys, purified as a complex as the wild type
Description: SEC-MALS; control without cross-linking; Superdex 75 5/150 GL, 20 mM Tris pH 8, 150 mM sodium chloride, 25 ul of 6 mg/ml; both purified. (In general: In gel filtration, larger molecules generally elute earlier.)

Test [3] addresses T1, mTEAD4 (residues 210-427) Cys360Ser. Description: cross-linking + SEC-MALS; specific disulfide cross-linking of TAZ Asn33Cys with 1.5 mM CuCl2 and 5 mM phenanthroline, 1 hour at 25 °C, stopped with 50 mM EDTA; Superdex 75 5/150 GL, 20 mM Tris pH 8, 150 mM sodium chloride; both purified.

B1: mTAZ (residues 25-57) (domain or fragment, mouse, UniProt Q9EPK5 25-57, looked up)
chain: DTDLEALFNSVMNPKPSSWRKKILPESFFKEPD
notes: TAZ (WWTR1), mouse, residues 25-57 (helix α1, 13-residue loop, helix α2); Cloned with mTEAD4 in a modified pETDuet-1 vector; also called mouse TAZ; not shown: His6, N-terminal, cleaved
Regarding B1, in test [1], the binding entry was “binds”.

B2: mTAZ (residues 25-57) Asn33Cys (domain or fragment, mouse, UniProt Q9EPK5 25-57, looked up)
chain: B1 chain with N9C
notes: TAZ (WWTR1), mouse, residues 25-57, Asn33 replaced with cysteine for disulfide cross-linking; In the cross-linked sample Cys33 of two copies is joined by a disulfide (copper phenanthroline); in the control and DTT samples it is not; also called TAZ Asn33Cys; source: E. coli BL21 (DE3), co-expressed with mTEAD4 (210-427) Cys360Ser, purified as a complex as the wild type; not shown: His6, …
Consider B2, for which the binding result in test [2] and in test [3] was “binds” each time.
